From PMC4329010
Results are given in words; binding and its absence hold for the method and conditions named. In cells and extracts the contact can be indirect. A yes stands for co-enrichment or nearness to the bait. Other partners may have been found. Sequences can lack the tags named with a protein.

By UniProt entry, the sequences of proteins in these tests, tags left out.
UniProt O75643: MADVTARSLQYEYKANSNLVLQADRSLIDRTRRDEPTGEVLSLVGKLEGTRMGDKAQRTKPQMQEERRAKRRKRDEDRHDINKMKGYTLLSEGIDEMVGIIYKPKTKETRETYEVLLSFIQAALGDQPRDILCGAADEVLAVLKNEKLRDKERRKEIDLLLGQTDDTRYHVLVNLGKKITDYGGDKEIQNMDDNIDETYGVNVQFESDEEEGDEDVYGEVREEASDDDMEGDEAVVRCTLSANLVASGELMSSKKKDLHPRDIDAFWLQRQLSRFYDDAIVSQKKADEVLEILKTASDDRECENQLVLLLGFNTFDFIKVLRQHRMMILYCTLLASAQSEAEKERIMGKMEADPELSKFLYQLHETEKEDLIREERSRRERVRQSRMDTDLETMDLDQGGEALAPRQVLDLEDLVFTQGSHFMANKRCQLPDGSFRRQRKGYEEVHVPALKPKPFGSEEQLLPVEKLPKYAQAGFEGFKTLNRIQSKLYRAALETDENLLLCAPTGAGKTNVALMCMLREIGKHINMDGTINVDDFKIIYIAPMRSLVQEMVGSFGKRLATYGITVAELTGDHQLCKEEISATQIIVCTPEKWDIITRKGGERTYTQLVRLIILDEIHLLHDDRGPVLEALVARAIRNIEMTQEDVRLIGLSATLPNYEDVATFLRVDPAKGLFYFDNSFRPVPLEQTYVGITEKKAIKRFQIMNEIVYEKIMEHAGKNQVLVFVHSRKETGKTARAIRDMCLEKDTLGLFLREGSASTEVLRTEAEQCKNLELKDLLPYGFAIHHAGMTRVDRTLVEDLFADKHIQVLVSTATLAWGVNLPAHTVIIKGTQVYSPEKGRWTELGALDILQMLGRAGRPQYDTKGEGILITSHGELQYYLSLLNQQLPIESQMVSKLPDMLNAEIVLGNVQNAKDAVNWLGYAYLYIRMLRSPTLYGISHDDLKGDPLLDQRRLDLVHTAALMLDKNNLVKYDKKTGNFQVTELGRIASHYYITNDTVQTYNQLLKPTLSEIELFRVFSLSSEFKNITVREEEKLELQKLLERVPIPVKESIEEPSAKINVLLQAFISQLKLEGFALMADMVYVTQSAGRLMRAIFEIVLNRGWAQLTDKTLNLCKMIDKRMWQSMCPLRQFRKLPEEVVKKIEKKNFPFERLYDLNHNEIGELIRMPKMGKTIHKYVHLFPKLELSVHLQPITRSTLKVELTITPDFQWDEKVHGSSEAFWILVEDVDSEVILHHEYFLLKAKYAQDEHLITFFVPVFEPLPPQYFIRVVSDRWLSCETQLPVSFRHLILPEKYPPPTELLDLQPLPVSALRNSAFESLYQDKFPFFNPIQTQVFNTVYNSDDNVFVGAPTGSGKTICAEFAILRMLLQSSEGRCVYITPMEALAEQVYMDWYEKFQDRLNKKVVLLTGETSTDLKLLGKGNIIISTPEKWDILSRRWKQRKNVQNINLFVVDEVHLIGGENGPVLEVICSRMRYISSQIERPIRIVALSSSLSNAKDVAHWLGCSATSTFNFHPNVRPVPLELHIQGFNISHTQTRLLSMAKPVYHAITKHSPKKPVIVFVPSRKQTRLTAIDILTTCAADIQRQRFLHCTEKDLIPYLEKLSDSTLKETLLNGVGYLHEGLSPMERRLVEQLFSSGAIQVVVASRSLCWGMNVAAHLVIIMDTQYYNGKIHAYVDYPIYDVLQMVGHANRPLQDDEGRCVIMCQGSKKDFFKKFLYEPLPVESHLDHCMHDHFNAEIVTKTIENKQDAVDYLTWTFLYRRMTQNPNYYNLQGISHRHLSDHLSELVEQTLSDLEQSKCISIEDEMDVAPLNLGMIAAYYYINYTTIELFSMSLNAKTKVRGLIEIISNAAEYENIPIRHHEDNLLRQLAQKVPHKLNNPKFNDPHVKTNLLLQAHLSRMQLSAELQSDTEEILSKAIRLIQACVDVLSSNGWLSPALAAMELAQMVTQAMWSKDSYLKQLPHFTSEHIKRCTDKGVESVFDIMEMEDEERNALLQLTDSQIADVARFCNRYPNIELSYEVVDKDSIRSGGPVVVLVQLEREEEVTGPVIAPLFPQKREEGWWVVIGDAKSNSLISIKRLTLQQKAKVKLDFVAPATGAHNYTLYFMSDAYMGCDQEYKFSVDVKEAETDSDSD

Biological target: T1, Flag-SNW1 (human) (UniProt Q13573)
T1 sequence: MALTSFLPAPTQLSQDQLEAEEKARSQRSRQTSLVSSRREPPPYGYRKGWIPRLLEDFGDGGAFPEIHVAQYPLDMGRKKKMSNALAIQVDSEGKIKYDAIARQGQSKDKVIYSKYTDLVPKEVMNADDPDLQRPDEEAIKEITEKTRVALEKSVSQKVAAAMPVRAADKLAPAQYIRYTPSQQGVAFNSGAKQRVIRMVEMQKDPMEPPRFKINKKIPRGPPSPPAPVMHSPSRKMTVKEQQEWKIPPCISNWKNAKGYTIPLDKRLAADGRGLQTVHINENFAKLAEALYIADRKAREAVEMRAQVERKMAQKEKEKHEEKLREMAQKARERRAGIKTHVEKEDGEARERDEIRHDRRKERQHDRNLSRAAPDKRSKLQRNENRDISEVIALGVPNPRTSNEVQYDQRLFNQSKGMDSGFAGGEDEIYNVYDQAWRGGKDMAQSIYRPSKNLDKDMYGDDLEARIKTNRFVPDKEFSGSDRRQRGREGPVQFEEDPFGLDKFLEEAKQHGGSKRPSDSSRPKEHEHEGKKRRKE
Assay: affinity purification with mass spectrometry; 293T cells constitutively expressing Flag-SNW1 lysed, immunoprecipitated with anti-Flag antibody, eluted with Flag peptide, trypsin digest, LC-MS/MS, Mascot

binding: binds
Substance: SNRNP200 (endogenous) (from UniProt O75643 1-2136)
